In this data set the test system is Schmidtea mediterranea. As for the experimental part: Asexual strains of the freshwater planarian Schmidtea mediterranea (38, 45) were maintained in culture medium, consisting of water, that was first deionized and then distilled, and to which the following nutrients were added: 1.6 mM NaCl, 1.0 mM CaCl2, 1.0 mM MgSO4, 0.1 mM MgCl2, 0.1 mM KCl and 1.2 mM NaHCO3. The animals were continuously kept in the dark at a room temperature of 20° C. and were fed once a week with veal liver. […]
In each experimental condition, animals were cut transversally immediately before exposure to a genotoxic, non-genotoxic or non-carcinogen concentration, medium (control) or medium with DMSO (vehicle control). […] Stem cell proliferation was measured after one day of regeneration (the mitotic minimum of regeneration), after three days (the mitotic maximum of regeneration), after one week (the end stage of regeneration) after two and six weeks (during homeostasis), as well as at the appearance of organismal phenotypes (15, 46, 47). Phenotypic effects were monitored daily with a stereo microscope.
An in vivo study allows the investigation of the entire organism's response to carcinogenic compounds and, as such, makes it possible to link carcinogen-induced stem cell proliferation with the organism's phenotype. […] Stem cell proliferation was quantified at the appearance of systemic effects (category 2 concentrations).

SMILES strings stand for the structures. Where a name gives a salt, the structure may show the parent alone.

On to `CN(C)CCN(Cc1cccs1)c1ccccn1` [MPH, methapyrilene hydrochloride], for which the “Cat. 3 concentrations: Mortality” value (MPH, exposure two weeks) was determined as 500 µM. For the same molecule, the “Cat. 1 concentrations: No effects on phenotype” value (asexual strain, Schmidtea mediterranea, in vivo, 2 weeks) was determined as 10 µM.
